Test results from patent US9282743B2, “Chemical compounds” (Syngenta Participations AG, priority 2011, dated 2016).
Some entries share one result that the patent states for a list of compounds.

Columns and labels:
[1] = tested on: Bemisia tabaci (tobacco white fly); experiment: Example B12: activity against Bemisia tabaci, larvicide, contact/feeding; format: in vivo; settings: 200 ppm; bean plants sprayed; three weeks
[2] = tested on: Aonidiella aurantii (red scale); experiment: Example B13: activity against Aonidiella aurantii on potato tubers; format: in vivo; settings: 200 ppm; potato tubers dipped; 6-8 weeks after application

Row | SMILES | activity (efficacy, number of emerged adults vs non treated) [1] | activity (number of crawlers of next generation vs non treated) [2]
1 | CON1CCN2C(=O)C(c3c(C)cc(Br)cc3C)C(=O)N2CC1 [Compound P2.9] | over 80% | over 80%
2 | CCOC(=O)Oc1c(-c2c(C)cc(C)cc2OC)c(=O)n2n1CCN(OC)CC2 [Compound P1.9] | over 80% | –
3 | CCOC(=O)Oc1c(-c2c(C)cc(Cl)cc2C)c(=O)n2n1CCN(OC)CC2 [Compound P1.3] | over 80% | over 80%
4 | C#Cc1cc(C)cc(C)c1C1C(=O)N2CCN(OC)CCN2C1=O [Compound P2.5] | over 80% | over 80%
5 | CCOC(=O)Oc1c(-c2c(C)cc(Br)cc2C)c(=O)n2n1CCN(OC)CC2 [Compound P1.10] | over 80% | over 80%
6 | CON1CCN2C(=O)C(c3c(C)cc(Cl)cc3C)C(=O)N2CC1 [Compound P2.2, 8-(4-Chloro-2,6-dimethyl-phenyl)-3-methoxy-tetrahydro-pyrazolo[1,2-a][1,2,5]triazepine-7,9-dione] | over 80% | –
7 | CCOC(=O)Oc1c(-c2c(C)cc(C)cc2C)c(=O)n2n1CCN(OC)CC2 [Compound P1.2, Carbonic acid ethyl ester 3-methoxy-9-oxo-8-(2,4,6-trimethyl-phenyl)-2,3,4,5-tetrahydro-1H,9H-pyrazolo[1,2-a][1,2,5]triazepin-7-yl ester] | over 80% | over 80%
